# Data: PubChem BioAssay AID485298 (National Center for Advancing Translational Sciences (NCATS), 2010)
# Hit rate of the full screen: of about 320,000 compounds, about 740 (0.23%) were called active. The shares of active, inactive and inconclusive entries below differ from those in the screen. Calls follow the shape of the dose curve; as a rule, active = well fitted activation curve with a large enough effect; inconclusive = small, poorly fitted or top-dose-only effect; inactive = no such curve, though single readings can be large or run the other way. Where the call is inconclusive, the potency comes from a doubtful curve fit.
# Test: qHTS Assay for Small Molecule Inhibitors of Mitochondrial Division or Activators of Mitochondrial Fusion; also: nearly all actives have a fitted effect of over 45% in size
# Conditions: S. cerevisiae fusion-defective mutant growth rescue, CellTiterGlo 48 h; series mostly up to 46.1 µM
# Summary of the method: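 Temperature-sensitive fusion-defective S. cerevisiae (e.g. fzo1-1, mgm1-5) were grown with compound in YPEG medium (3% ethanol, 3% glycerol) for 48 hours at 37C. Growth rescue was measured as viability by CellTiterGlo luminescence after 10 minutes at ambient.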
# Potency is read from the fitted curve at half-maximal effect.
row,SMILES,Potency
1,CCC(Oc1ccccc1)C(=O)Nc1ccccn1 (stereo not given),"inconclusive: 35.5 µM [activator, single point]"
2,CN(C(=O)c1ccc(S(=O)(=O)c2cccc(Cl)c2)c([N+](=O)[O-])c1)C1CCCCC1,"inconclusive: 11.2 µM [activator, partial curve]"
3,CN(CC(=O)NCc1ccco1)S(=O)(=O)c1ccc2c(c1)c(=O)n(C)c(=O)n2C,inactive
4,CCc1nc(N2CCN(C(=O)c3ccco3)CC2)c(C#N)c2c1COC(C)(C)C2,inactive
5,CN(C)S(=O)(=O)c1cccc(NC(=S)Nc2cccc3cnccc23)c1,inactive
6,COc1ccc(S(=O)(=O)NCC(c2ccc3c(c2)OCO3)N2CCN(c3ccccc3)CC2)cc1 (stereo not given),"inconclusive: 35.5 µM [activator, single point]"
7,CC(C)(C)c1cc(/C=N/O)cc(C(C)(C)C)c1O,"inconclusive: 3.55 µM [activator, partial curve]"
8,CCOc1ccc2nc(NC(=O)CN3CCC(n4nnc5cc(F)ccc54)CC3)sc2c1,"inconclusive: 8.91 µM [activator, single point]"
9,Cn1cc(/C=N/NC(=O)c2cccc([N+](=O)[O-])c2)c2ccccc21,inactive
10,Cc1c(C(=O)NC2CCCc3ccccc32)cccc1[N+](=O)[O-] (stereo not given),"inconclusive: 4.47 µM [activator, partial curve]"
11,O=c1[nH]ncc(N2CCN(C(c3ccccc3)c3ccccc3)CC2)c1Cl,"inconclusive: 25.1 µM [activator, single point]"
12,Cc1ccccc1OCC(=O)O/N=C(\N)c1ccncc1,"inconclusive: 10 µM [activator, partial curve]"
13,O=C(NCC(c1cccs1)N1CCc2ccccc21)c1ccccc1 (stereo not given),"inconclusive: 12.6 µM [activator, partial curve]"
14,COCCN(C(=O)C(F)(F)F)C(C(=O)NC1CCCCC1)c1ccco1 (stereo not given),"inconclusive: 31.6 µM [activator, single point]"
15,O=C1SCC(c2ccc(Cl)cc2Cl)=NN1Cc1nnc(-c2ccccc2)o1,"inconclusive: 15.8 µM [activator, single point]"
16,Cc1ccc(C)c(NC(=O)c2cc3ccccc3o2)c1,inactive
17,CCOC(=O)C1CCN(S(=O)(=O)CCNC(=O)c2ccccc2)CC1,inactive
18,Cc1ccc(Nc2c(-c3ccccn3)nc3ccc(C)cn23)cc1,inactive
19,O=C(Oc1cccc2c(O)cccc12)c1ccccc1,"inconclusive: 15.8 µM [activator, single point]"
20,COc1ccc(-c2nc(C)sc2CC(=O)O)cc1,"inconclusive: 31.6 µM [activator, single point]"
21,Cn1c(-c2ccsc2)c(-c2cccs2)c2cc(-c3cccc4[nH]ccc34)ccc21,"inconclusive: 22.4 µM [activator, single point]"
22,Cc1ccc(-c2nnc(N3CCN(c4ccccn4)CC3)c3ccccc23)cc1,"inconclusive: 11.2 µM [activator, single point]"
23,COc1ccc(N2CCC(CNC(=S)Nc3cccc(C)c3)C2)cc1 (stereo not given),"inconclusive: 10 µM [activator, partial curve]"
24,Cn1cc([N+](=O)[O-])c(C(=O)Nc2ccc(C3CCCCC3)cc2)n1,"inconclusive: 5.01 µM [activator, partial curve]"

# Random excerpt: three entries already listed
row,SMILES,Potency
2,CN(C(=O)c1ccc(S(=O)(=O)c2cccc(Cl)c2)c([N+](=O)[O-])c1)C1CCCCC1,"inconclusive: 11.2 µM [activator, partial curve]"
16,Cc1ccc(C)c(NC(=O)c2cc3ccccc3o2)c1,inactive
6,COc1ccc(S(=O)(=O)NCC(c2ccc3c(c2)OCO3)N2CCN(c3ccccc3)CC2)cc1 (stereo not given),"inconclusive: 35.5 µM [activator, single point]"

# (more compounds)

row,SMILES,Potency
1,CCc1ccc(CNC(=O)C2CCCN(S(=O)(=O)N3CC(C)CC(C)C3)C2)cc1 (stereo not given),"inconclusive: 3.16 µM [activator, full curve]"
2,O=C(COC(=O)/C(=C/c1cccs1)c1cccs1)NCc1ccccc1Cl,"inconclusive: 12.6 µM [activator, partial curve]"
3,Cc1ccc(NC(=O)COC(=O)c2ccccc2-c2nc3ccccc3s2)c(C)c1,"inconclusive: 22.4 µM [activator, single point]"
4,O=C(NCC(=O)N(c1ccc(F)cc1)C(C(=O)NC1CCCC1)c1cccnc1)c1cccs1 (stereo not given),"inconclusive: 3.98 µM [activator, single point]"
5,O=C(CO/N=C/c1ccccc1)N1c2ccccc2Oc2ccccc21,"inconclusive: 35.5 µM [activator, single point]"
6,Cc1nn(CCCC(=O)Nc2cccnc2Cl)c(C)c1[N+](=O)[O-],"inconclusive: 6.31 µM [activator, single point]"
7,O=C(Nc1ccccc1)C1=C[C@@H](C2CCCCC2)C[C@@H](OCc2ccc(CO)cc2)O1,"inconclusive: 7.94 µM [activator, partial curve]"
8,COC(=O)Nc1ccc(OCc2ccccc2)cc1,inactive
9,COc1cc(C(=O)Nc2sc3c(c2C(=O)O)CCC(C)C3)cc(OC)c1OC (stereo not given),inactive
10,Cc1ccc(S(=O)(=O)c2nc(Nc3nccs3)sc2Cl)cc1,"inconclusive: 15.8 µM [activator, single point]"
11,CCn1c(NCc2ccc(N(C)C)cc2)nc2ccccc21,inactive
12,O=C(CCCCCNC(=O)N1CCn2c1nc1ccccc12)N[C@@H](Cc1ccccc1)C(=O)O,inactive
13,Clc1cccc2sc(N3CCN(c4ccccc4)CC3)nc12,"inconclusive: 11.2 µM [activator, single point]"
14,Cc1ccc(NC(=S)NC(C)CCc2ccccc2)cc1C (stereo not given),"inconclusive: 31.6 µM [activator, single point]"
15,CCS(=O)c1ccccc1C(=O)OCC(=O)Nc1cccc(S(=O)(=O)N2CCCCC2)c1 (stereo not given),inactive
16,CCOc1ccccc1NC(=O)C(OC(=O)c1ccc(N(C)C)cc1)c1ccccc1 (stereo not given),"inconclusive: 11.2 µM [activator, partial curve]"
17,CC(C)NC(=O)c1ccc2c3n(nc2c1)-c1ccc(Cl)cc1CO3,"inconclusive: 14.1 µM [activator, single point]"
18,Cc1oc2c(c1C(=O)Nc1ccc(C(=O)O)cc1)CCCC2,inactive
19,Nc1cc(C(=O)O)c(N)c2c1C(=O)c1ccccc1C2=O,inactive
20,Cc1ccc(NC(=O)c2cccs2)cc1NC(=O)c1ccco1,"inconclusive: 6.31 µM [activator, single point]"
21,CCc1ccc(-c2cc(C)no2)cc1S(=O)(=O)NCCc1ccccc1,inactive
22,CCOc1ccc(S(=O)(=O)n2c(C)nc3ccccc32)cc1,inactive
23,c1ccc2c(c1)CC(N1CCN(c3cccc4c3OCCO4)CC1)C2,"inconclusive: 2.31 µM [activator, full curve, poor fit]"
24,CCOC(=O)C(=CNc1ccccc1C)C(=O)OCC,"inconclusive: 22.4 µM [activator, single point]"

row,SMILES,Potency
1,O=C(Oc1cccc([N+](=O)[O-])c1)c1cc(-c2ccccc2)nc2ccccc12,inactive
2,CNc1nc(N/N=C/c2ccc([N+](=O)[O-])cc2)nc(Nc2ccccc2)n1,"inconclusive: 22.4 µM [activator, single point]"
3,Cc1ccc(C(=O)c2ccccc2C(=O)OCC(=O)Nc2cccc([N+](=O)[O-])c2)cc1,"inconclusive: 15.8 µM [activator, partial curve]"
4,Cc1ccccc1OCCn1c(=O)sc2ccccc21,"inconclusive: 11.2 µM [activator, partial curve]"
5,COCC(C)Nc1ncnc2c1cnn2-c1ccc(Cl)cc1 (stereo not given),"inconclusive: 3.55 µM [activator, full curve, poor fit]"
6,O=C(N/N=C/c1cccs1)c1cc(-c2cccc3ccccc23)n[nH]1,"inconclusive: 35.5 µM [activator, single point]"
7,c1ccc(Cc2noc(CN3CCN(C4CCc5ccccc5C4)CC3)n2)cc1 (stereo not given),"inconclusive: 35.5 µM [activator, single point]"
8,S=C(Nc1ccccc1Cl)N(Cc1ccccc1)Cc1ccccn1,active: 17.8 µM
9,Cc1ccc(-c2noc(CSc3nnc(Cc4ccccc4)n3-c3ccc(Cl)cc3)n2)cc1,"inconclusive: 31.6 µM [activator, single point]"
10,CCc1ccc(N2CC(C(=O)OCC(=O)Nc3ccccc3C)CC2=O)cc1 (stereo not given),"inconclusive: 6.31 µM [activator, partial curve]"
11,CCN(CC)S(=O)(=O)c1cnccc1N1CCN(c2cccc(Cl)c2)CC1,active: 12.6 µM
12,Cc1cc(C)cc(C(=O)Nc2nnc(SCC(=O)N3CCCc4ccccc43)s2)c1,"inconclusive: 15.8 µM [activator, single point]"
13,Fc1cccc(CSc2ccc(-c3ccc4c(c3)OCO4)nn2)c1,inactive
14,Fc1ccc(-c2nnc(CN3CCC(c4nc5ccccc5s4)CC3)o2)cc1,"inconclusive: 14.1 µM [activator, partial curve]"
15,COc1ccc(N2C(=O)c3ccccc3NC2(C)C)cc1,inactive
16,COc1cc2cc(C)nc(Cc3cccc4ccccc34)c2cc1OC,"inconclusive: 12.6 µM [activator, partial curve]"
17,COc1ccc(S(=O)(=O)N2CCCCC2)cc1NC(=O)CN(C)C1CCCCC1,inactive
18,O=C1NCCC/C1=N/Nc1cc(F)ccc1F,"inconclusive: 3.55 µM [activator, single point]"
19,CC(=O)Nc1cccc(Oc2ncnc3scc(-c4ccccc4)c23)c1,"inconclusive: 12.6 µM [activator, partial curve]"
20,O=C(NCc1ccccc1)c1cc2ccccc2o1,"inconclusive: 22.4 µM [activator, single point]"
21,CN(CC(=O)Nc1cc(S(=O)(=O)N2CCCC2)ccc1Cl)Cc1ccc2c(c1)OCO2,"inconclusive: 15.8 µM [activator, single point]"
22,O=C(CNC(=O)c1cccs1)N/N=C/c1ccc(O)cc1O,"inconclusive: 28.2 µM [activator, single point]"
